Test results as given in paper PMC3556083.
Results are given in words; binding and its absence hold for the method and conditions named. In cells and extracts the contact can be indirect. A yes stands for co-enrichment or nearness to the bait. Other partners may have been found.

B1: RAB3GAP2 (protein, UniProt Q5U1Z0 1-1386)
chain: MACSIVQFCSFQDLQSARDFLFPQLREETPGALRRDPSKTSNWEDDSWGAWEETEPQEPEEEGNTSKTQKHSWLQECVLSLSPTSDLMVIAREQKAAFLVRKWKHSDKGKEEMQFAVGWSGSVSAEEGEYVTSALCIPLASQKRSSTGRPDWTCIVVGFTSGYVRFYTEGVLLLAQLLNEDRVLQLKCRTYEIPRHPGVTEQNEELSILYPAAIVTIDGFSLFQSLRACRNQVAKAAASGNENIQPPPLAYKKWGLQDIDTIIDHASIGIMTLSPFDQMKTASNIGGFNAAIKNSPPAMSQYITVGSSPFTGFFYALEGSTQPLLSHVALAVASKLTSALFSAASGWLGWKSKHEEETVQKQKPKMEPATPLAVRFGLPDSRRHGESICLSPCNTLAAVTDDFGRVILLDVARGIAIRMWKGYRDAQIGWIQIVEDLHERVPEKGDFSPFGNTQGPSRVAQFLVIYAPRRGILEVWSTQQGPRVGAFNVGKHCRLLYPGYKIMGLNNVTSQSWQPQTYQICLVDPVSASVKAVNVPFHLALSDKKSERAKDLHLVKKLAALLRAKSPRPDSFEAEIKELILDIKYPATKKQALESILASDRVSFSCLRNVTQTSMDTLKNQELESVDEGLLQFCASKLKLLHLYESVSQLNTLDFHSDTPFSDNDLAVLLRLDDKELLKLRALLEKYKQENTKATVRFSEDADGVLPVKTFLEYLDYEKDALSIRKTSEEECVALGSFFFWKCLHGESSTEDMCHTLESAGLSPQQLLSLLLSVWLSKEKDILDKPQSVCCLHTMLSLLSKMKVAIDETWDSQSVSPWWQQMRMACIQSENNGAALLSAHVGHSVAAQMSSSATDKKFSQMVLDADAEALTDSWEALSLDTEYWKLLLRQLEDCLILQTLLHSRASPPAAKASSPQTEPLPRLSVKKLLEGGKGGIADSVAKWIFKQDLSPELLKCANREKDVENPDEPREGIARSPPEVSEVETDLGAVPDLLRLAYEQFPCSLELDVLHAHCCWEYVVQWNKDPEEARFLVRSIEHLRHILNPHVQNGISLMMWNTFLVKRFSAATYLMDKVGKSPKDRLCRRDVGMSDTALTSFLGSCLDLLQTSLEADISRDEVQVPVLDTEDAWLSVEGPTSIVELALEQKPIHYPLVEHHSILCSILYAAMSFSLKSVKPLALFDSKGKNAFFKDLTSIQLLPSGEMDPNFISVRQQFLLKVVSAAVQAQHSKDKDPSARAADTHGQDLNWTALAVDLAHHLQVSEDVIRRHYVGELYSYGADLLGEEAILQVQDKEVLASQLLVLTGQRLAHALFHTQTKEGMELLARLPPTLCTWLKAMNPQDLQNTGVPVAATAKLVHKVMELLPEKHGQYSLALHLIEAVEAMATL
B2: PFKM (protein, UniProt P47858 1-780)
chain: MTHEEHHEAKTLGIGKAIAVLTSGGDAQGMNATVRAVVRVGIFTGLRVFFVHEGYQGLVDGGEHIREATWESVSMMLQLGGTVIGSARCKDFREREGRLRAAHNLVKRGITNLCVIGGDGSLTGADTFRSEWSDLLNDLQKDGKITAEERTKSSYLNIVFLVGSIDNDFCGTDMTIGTDSALHRIVEIVDAITTTAQSHQRTFVLEVMGRHCGYLALVTSLSCGADWVFIPECPPDDDWEEHLCRRLSETRTRGSRLNIIIVAEGAIDKNGKPITSEDIKNLVVKRLGYDTRVTVLGHVQRGGTPSAFDRILGSRMGVEAVMALLEGTPDTPACVVSLSGNTAVRLPLMECVQVTKDVTKAMDEKRFDEAIKLRGRSFMNNWEVYKLLAHVRPPVSKGGLHTVAVMNVGAPAAGMNAAVRSTVRIGLIQGNRVLVVHDGFEGLAKGQIEEAGWSYVGGWTGQGGSKLGTKRTLPKKNLEQISANITKYNIQGLVIIGGFEAYTGGLELMEGRKQFDELCIPFVVIPATVSNNVPGSDFSIGADTALNTICTTCDRIKQSAAGTKRRVFIIETMGGYCGYLATMAGLAAGADAAYIFEEPFTIRDLQVNVEHLVQKMKTTVKRGLVLRNEKCNENYTTDFIFNLYSEEGKGIFDSRKNVLGHMQQGGNPTPFDRNFATKMGAKATNWMSGKIKESYRNGRIFANTPDSGCVLGMRKRALVFQPVTELKDQTDFEHRIPKEQWWLKLRPILKILAKYEIDLDTSDHAHLEHISRKRSGEAAV
B3: RAB10 (protein, UniProt P35281 1-200)
chain: MAKKTYDLLFKLLLIGDSGVGKTCVLFRFSDDAFNTTFISTIEIDFKIKTVELQGKKIKLQIWDTAGQERFHTITTSYYRGAMGIMLVYDITNGKSFENISKWLRNIDQHANEDVERMLLRNKCDMDHKRVVPKGKGEQIAREHRIRFFETSAKANINIEKAFLTLPEDILRKTPVKEPNSENVDISSGGGVTGWKSKCC
B4: COQ7 (protein, UniProt Q63619 1-217)
chain: MSGAGAIAAASVGCLRTGVPRPFSAYGRGLIIRCHSTGMTLDNINRAAVDQIIRVDHAGEYGANRIYAGQMAVLGRTSVGPVIQKMWDQEKNHLKKFNELMVAFRVRPTVLMPLWNVAGFALGAGTALLGKEGAMACTVAVEESIAHHYNNQIRMLMEEDAEKYEELLQVIKQFRDEELEHHDTGLEHDAELAPAYTLLKRLIQAGCSAAIYLSERF
B5: RAB2A (protein, UniProt P05712 1-212)
chain: MAYAYLFKYIIIGDTGVGKSCLLLQFTDKRFQPVHDLTMGVEFGARMITIDGKQIKLQIWDTAGQESFRSITRSYYRGAAGALLVYDITRRDTFNHLTTWLEDARQHSNSNMVIMLIGNKSDLESRREVKKEEGEAFAREHGLIFMETSAKTASNVEEAFINTAKEIYEKIQEGVFDINNEANGIKIGPQHAATNASHGGNQGGQQAGGGCC
B6: PPP2R2A (protein, UniProt P36876 1-447)
chain: MAGAGGGNDIQWCFSQVKGAVDDDVAEADIISTVEFNHSGELLATGDKGGRVVIFQQEQENKIQSHSRGEYNVYSTFQSHEPEFDYLKSLEIEEKINKIRWLPQKNAAQFLLSTNDKTIKLWKISERDKRPEGYNLKEEDGRYRDPTTVTTLRVPVFRPMDLMVEASPRRIFANAHTYHINSISINSDYETYLSADDLRINLWHLEITDRSFNIVDIKPANMEELTEVITAAEFHPNSCNTFVYSSSKGTIRLCDMRASALCDRHSKLFEEPEDPSNRSFFSEIISSISDVKFSHSGRYMMTRDYLSVKVWDLNMENRPVETYQVHEYLRSKLCSLYENDCIFDKFECCWNGSDSVVMTGSYNNFFRMFDRNTKRDITLEASRENNKPRTVLKPRKVCASGKRKKDEISVDSLDFNKKILHTAWHPKENIIAVATTNNLYIFQDKVN
B7: GPX3 (protein, UniProt P23764 25-226)
chain: QEKSKTDCHGGMSGTIYEYGALTIDGEEYIPFKQYAGKYILFVNVASYUGLTDQYLELNALQEELGPFGLVILGFPCNQFGKQEPGENSEILPSLKYVRPGGGFVPNFQLFEKGDVNGEKEQKFYTFLKNSCPPTAELLGSPGRLFWEPMKIHDIRWNFEKFLVGPDGIPIMRWYHRTTVSNVKMDILSYMRRQAALGARGK
B8: AKR7A2 (protein, UniProt Q8CG45 47-367)
chain: GTVLGTMEMGRRMDASASAATVRAFLERGLNELDTAFMYCDGQSESILGSLGLGLGSGDCTVKIATKANPWDGKSLKPDSVRSQLETSLKRLQCPRVDLFYLHAPDHGTPIVETLQACQQLHQEGKFVELGLSNYASWEVAEIYTLCKSNGWILPTVYQGMYNATTRQVETELLPCLRYFGLRFYAYNPLAGGLLTGKYRYEDKDGKQPEGRFFGNSWSETYRNRFWKEHHFEAIALVEKALKTTYGTSAPSMTSAALRWMYHHSQLQGTRGDAVILGMSSLEQLEQNLAATEEGPLEPAVVEAFNQAWNVVAHECPNYFR
B9: ACO1 (protein, UniProt Q63270 1-889)
chain: MKNPFAHLAEPLDPAQPGKKFFNLNKLEDSRYGRLPFSIRVLLEAAVRNCDEFLVKKNDIENILNWSIMQHKSIEVPFKPARVILQDFTGVPAVVDFAAMRDAVKKLGGNPEKINPVCPADLVIDHSIQVHFNRRADSLQKNQDLEFERNRERFEFLKWGSQAFCNMRIIPPGSGIIHQVNLEYLARVVFDQDGCYYPDSLVGTDSHTTMIDGLGVLGWGVGGIEAEAVMLGQPISMVLPQVIGYKLMGKPHPLVTSTDIVLTITKHLRQVGVVGKFVEFFGPGVAQLSIADRATIANMCPEYGATAAFFPVDDVSIAYLVQTGREEDKVKHIKRYLQAVGMFRDFSDSSQDPDFTQVVELDLKTVVPCCSGPKRPQDKVAVSEIEKDFESCLGAKQGFKGFQVAPDHHNDHKTFIYNDSEFTLAHGSVVIAAITSCTNTSNPSVMLGAGLLAKKAVEAGLNVKPYVKTSLSPGSGVVTYYLRESGVMPYLSQLGFDVVGYGCMTCIGNSGPLPEPVVEAITQGDLVAVGVLSGNRNFEGRVHPNTRANYLASPPLVIAYAIAGTVRIDFEKEPLGVNAQGQQVFLKDIWPTRDEIQEVERKYVIPGMFKEVYQKIETVNKSWNALAAPSEKLYAWNPKSTYIKSPPFFESLTLDLQPPKSIVDAYVLLNLGDSVTTDHISPAGNIARNSPAARYLTNRGLTPRDFNSYGSRRGNDAIMARGTFANIRLLNKFLNKQAPQTVHLPSGETLDVFDAAERYQQAGLPLIVLAGKEYGSGSSRDWAAKGPFLLGIKAVLAESYERTHCSNLVGMGVIPLEYLPGETADSLGLTGRERYTIHIPEHLKPRMKVQIKLDTGKTFQAVMRFDTDVELTYFHNGGILNYMIRKMAQ
B10: NDRG2 (protein, UniProt Q8VBU2 1-371)
chain: MAELQEVQITEEKPLLPGQTPEAAKEAELAARILLDQGQTHSVETPYGSVTFTVYGTPKPKRPAIFTYHDVGLNYKSCFQPLFQFGDMQEIIQNFVRVHVDAPGMEEGAPVFPLGYQYPSQDQLADMIPCILQYLNFSTIIGVGVGAGAYILSRYALNHPDTVEGLVLINIDPNAKGWMDWAAHKLTGLTSSIPEMILGHLFSQEELSGNSELIQKYRSLITHAPNLENIELYWNSYNNRRDLNFERGGEMTLKCPVMLVVGDQAPHEDAVVECNSKLDPTQTSFLKMADSGGQPQLTQPGKLTEAFKYFVQGMGYMASSCMTRLSRSRTASLTSAASIDGSRSRSRTLSQSSESGTLPSGPPGHTMEVSC
B11: APRT (protein, UniProt P36972 1-180)
chain: MSESELQLVARRIRSFPDFPIPGVLFRDISPLLKDPDSFRASIRLLAGHLKSTHGGKIDYIAGLDSRGFLFGPSLAQELGVGCVLIRKRGKLPGPTVSASYSLEYGKAELEIQKDALEPGQKVVIVDDLLATGGTMCAACELLSQLRAEVVECVSLVELTSLKGREKLGPVPFFSLLQYE
B12: PGAM2 (protein, UniProt P16290 1-253)
chain: MATHRLVMVRHGESSWNQENRFCGWFDAELSEKGAEEAKRGATAIKDAKIEFDICYTSVLKRAIRTLWTILDVTDQMWVPVVRTWRLNERHYGGLTGLNKAETAAKHGEEQVKIWRRSFDTPPPPMDEKHNYYASISKDRRYAGLKPEELPTCESLKDTIARALPFWNEEIAPKIKAGKRVLIAAHGNSLRGIVKHLEGMSDQAIMELNLPTGIPIVYELNQELKPTKPMRFLGDEETVRKAMEAVAAQGKAK

molecular target: β2-adrenergic receptor (UniProt P07550); experiment: affinity purification with mass spectrometry; purified Flag-β2AR in rHDL immobilised on M1 anti-Flag resin, occupied by 50 µM BI-167107 (full agonist) or 50 µM carazolol (inverse agonist); adult rat heart cytosol (10 mg/ml, 4 mM CaCl2) overnight at 4°C; eluted with FLAG peptide and EDTA; gel slices, LC-MS; proteins of the M1 resin, empty rHDL and Ni-NTA controls subtracted; hits of either or both samples; only the target purified

binding, binds:
B1, B2, B3, B4, B5, B6, B7, B8, B9, B10, B11, B12
